Measurements reported in PubChem BioAssay AID504764 (Drosophila RNAi Screening Center, 2011).
Screen: 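Genome-wide screen for regulators of Notch-driven gene expression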 (primary screen). Cell system: Drosophila Kc167 cells. Knock-down reagent: long dsRNA against Drosophila genes. Time to read-out: about 5 days (4 days dsRNA, then 24 h after transfection). Treatment: transfection of constitutively active membrane-tethered Notch lacking the extracellular domain, read 24 h later. Read-out: 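Firefly luciferase from an E(spl)m3 reporter with active Notch, plus control-promoter and uninduced reporter wells for normalisation; unnormalised counts, duplicate wells a and b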. Direction: induced reporter light, run 1, well a and induced reporter light, run 1, well b: higher = more light from the Notch target reporter with active Notch; control promoter light, run 1, well a and control promoter light, run 1, well b: higher = more light from the viral control promoter (cell number, transfection, viability); uninduced reporter light, run 1, well a: higher = more light from the Notch target reporter without active Notch. Active means: 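Wells with low control signal or poorly matching duplicates excluded; duplicates averaged; per source plate, z beyond ±2 for induced/control log2 ratio or beyond ±1.8 for induced/uninduced marks a hit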. Calls: active = modifier hit (raised or lowered Notch signal); inactive = not a hit.
The deposit covers about 22,000 reagents; this is an unselected part of those that have a named target and a result. Over the whole deposit, 403 (1.9%) got an active call. 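Unnormalised raw counts per well; ratio z-scores behind the hit calls and whether each hit raises or lowers signal are not deposited.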 A plus sign joins genes that one reagent is predicted to hit. Not stated in the record: the amount of reagent.

The opening 3 entries, to show the layout:
gene knocked down | dsRNA | induced reporter light, run 1, well a | induced reporter light, run 1, well b | control promoter light, run 1, well a | control promoter light, run 1, well b | uninduced reporter light, run 1, well a | call
MED15 | DRSC00267 | 20465 | 19995 | 13740 | 12978 | 6225 | inactive
RpL30 | DRSC02087 | 20245 | 17720 | 40990 | 26020 | 1290 | inactive
Ada1-1 + Ada1-2 | DRSC01220 | 93125 | 1.03e5 | 1.32e5 | 1.20e5 | 9650 | inactive

The listing, from the first entry:
gene knocked down | dsRNA | induced reporter light, run 1, well a | induced reporter light, run 1, well b | control promoter light, run 1, well a | control promoter light, run 1, well b | uninduced reporter light, run 1, well a | call
MED15 | DRSC00267 | 20465 | 19995 | 13740 | 12978 | 6225 | inactive
RpL30 | DRSC02087 | 20245 | 17720 | 40990 | 26020 | 1290 | inactive
Ada1-1 + Ada1-2 | DRSC01220 | 93125 | 1.03e5 | 1.32e5 | 1.20e5 | 9650 | inactive
Ada1-1 + Ada1-2 | DRSC01222 | 74130 | 57875 | 59640 | 63470 | 7475 | inactive
Crtp | DRSC04604 | 1.35e5 | 1.29e5 | 1.14e5 | 1.42e5 | 10580 | inactive
AIMP1 | DRSC07118 | 2.01e5 | 1.69e5 | 1.91e5 | 2.05e5 | 14250 | inactive
Cyp6a23 | DRSC07383 | 93860 | 1.16e5 | 1.39e5 | 1.28e5 | 10700 | inactive
Strip | DRSC08194 | 69840 | 71010 | 40295 | 23010 | 7995 | inactive
CG4988 | DRSC02800 | 1.57e5 | 1.73e5 | 1.02e5 | 1.40e5 | 18550 | inactive
t-Grip84 | DRSC10904 | 2.19e5 | 1.63e5 | 2.56e5 | 1.71e5 | 11965 | inactive
CG12020 | DRSC08226 | 95640 | 1.07e5 | 1.51e5 | 1.73e5 | 8080 | inactive
ND-20L | DRSC15414 | 1.15e5 | 91385 | 1.43e5 | 1.58e5 | 10215 | inactive
Bsg | DRSC01010 | 38535 | 43690 | 19590 | 16810 | 6625 | inactive
Bsg | DRSC01011 | 92255 | 70125 | 1.33e5 | 1.02e5 | 6625 | inactive
CG13919 | DRSC08388 | 1.45e5 | 1.04e5 | 1.32e5 | 1.54e5 | 7850 | inactive
mRF1 | DRSC02880 | 2.01e5 | 2.47e5 | 2.03e5 | 1.86e5 | 16415 | inactive
Takl1 | DRSC13443 | 83760 | 62795 | 76145 | 67050 | 7420 | inactive
CG33221 (retired record) | DRSC21201 | 80380 | 67660 | 1.01e5 | 70070 | 5790 | inactive
cyp33 + CG34194 | DRSC05666 | 91660 | 1.03e5 | 1.29e5 | 1.18e5 | 8755 | inactive
Grp170 | DRSC18524 | 1.89e5 | 1.84e5 | 2.48e5 | 2.85e5 | 14075 | inactive
Hsp60A | DRSC20254 | 1.46e5 | 1.80e5 | 2.04e5 | 2.49e5 | 11945 | inactive
CG9444 | DRSC16493 | 1.04e5 | 91270 | 79155 | 55870 | 6588 | inactive
AsnRS-m | DRSC07010 | 1.08e5 | 1.10e5 | 1.08e5 | 1.24e5 | 9142 | inactive
Acp98AB (retired record) | DRSC21837 | – | – | – | – | – | active
Jon25Bi | DRSC03434 | 59660 | 59530 | 65950 | 58605 | 4545 | inactive
Or65b | DRSC08809 | 2.24e5 | 2.27e5 | 2.76e5 | 2.95e5 | 15200 | inactive
CG44774 | DRSC18342 | 1.31e5 | 1.15e5 | 1.86e5 | 2.29e5 | 8105 | inactive
CG12355 | DRSC09381 | 1.57e5 | 2.04e5 | 2.98e5 | 2.33e5 | 13295 | inactive
CG12355 | DRSC09883 | 1.57e5 | 1.50e5 | 2.15e5 | 1.91e5 | 9085 | inactive
Fuca | DRSC10591 | 90630 | 73660 | 97705 | 74770 | 5125 | inactive
CG9514 | DRSC20190 | 1.24e5 | 1.21e5 | 1.21e5 | 1.25e5 | 13305 | inactive
CG9514 | DRSC20191 | 1.24e5 | 80860 | 1.14e5 | 1.18e5 | 13695 | inactive
CG14767 | DRSC06500 | 1.78e5 | 1.56e5 | 1.50e5 | 1.53e5 | 18540 | inactive
ppk7 | DRSC03236 | 1.55e5 | 1.48e5 | 1.46e5 | 1.91e5 | 10490 | inactive
Tg | DRSC03047 | 1.38e5 | 1.56e5 | 1.01e5 | 1.10e5 | 22142 | inactive
CG32511 (retired record) | DRSC20697 | 1.89e5 | 1.75e5 | 3.18e5 | 2.89e5 | 13760 | inactive
HUWE1 | DRSC20089 | 1.12e5 | 89105 | 1.24e5 | 97145 | 17335 | inactive
CG2004 | DRSC18200 | 1.41e5 | 1.26e5 | 2.71e5 | 2.13e5 | 10550 | inactive
chif | DRSC03508 | 1.55e5 | 1.62e5 | 1.57e5 | 1.53e5 | 17695 | active
GATAd | DRSC02803 | 2.20e5 | 2.76e5 | 2.08e5 | 2.41e5 | 17640 | inactive
Vps16A | DRSC16422 | 98175 | 1.42e5 | 2.09e5 | 1.60e5 | 7992 | inactive
spn-B | DRSC17063 | 3.04e5 | 2.68e5 | 2.43e5 | 2.53e5 | 20970 | inactive
trn | DRSC11407 | 1.58e5 | 1.26e5 | 1.75e5 | 1.67e5 | 8325 | inactive
PlexB | DRSC17177 | 1.24e5 | 1.06e5 | 2.23e5 | 2.28e5 | 8615 | inactive
eIF3i | DRSC03464 | 12480 | 12045 | 14740 | 18570 | 800 | active
CG8229 | DRSC07114 | 89895 | 1.02e5 | 91535 | 80325 | 8315 | inactive
Pino | DRSC00038 | 3225 | 3990 | 2988 | 2890 | 2450 | inactive
Pino | DRSC00662 | 1.74e5 | 2.07e5 | 1.90e5 | 1.86e5 | 13305 | inactive
Cht12 | DRSC03844 | 57570 | 63825 | 79075 | 73660 | 5815 | inactive
CG15728 | DRSC19694 | 1.20e5 | 1.25e5 | 2.17e5 | 1.80e5 | 9405 | inactive
CG14818 | DRSC18548 | 1.47e5 | 1.39e5 | 2.13e5 | 2.52e5 | 9205 | inactive
Stt3A | DRSC20514 | 1.41e5 | 1.10e5 | 92390 | 55035 | 12740 | inactive
CG33143 | DRSC04151 | 1.89e5 | 1.72e5 | 1.77e5 | 1.49e5 | 13840 | inactive
CG33143 | DRSC04454 | 1.84e5 | 2.00e5 | 1.49e5 | 1.30e5 | 15235 | inactive
PCB | DRSC05939 | 1.64e5 | 1.34e5 | 2.21e5 | 1.73e5 | 12670 | inactive
CG4733 | DRSC15634 | 1.94e5 | 1.54e5 | 1.69e5 | 1.74e5 | 15470 | inactive
Polr3H | DRSC10817 | 1.97e5 | 2.12e5 | 2.24e5 | 1.84e5 | 11760 | inactive
nemy | DRSC05357 | 1.57e5 | 1.71e5 | 2.62e5 | 2.21e5 | 16675 | inactive
nemy | DRSC07262 | 98670 | 1.10e5 | 1.09e5 | 1.02e5 | 8705 | inactive
CG17349 | DRSC02610 | 43070 | 36380 | 42710 | 45795 | 3090 | inactive
CG5062 | DRSC18385 | 1.54e5 | 1.67e5 | 2.41e5 | 2.67e5 | 11305 | inactive
CG5098 | DRSC06915 | 89395 | 93420 | 1.75e5 | 1.58e5 | 7505 | inactive
rols | DRSC09873 | 2.13e5 | 1.55e5 | 2.64e5 | 1.83e5 | 11370 | inactive
rols | DRSC10254 | 1.69e5 | 1.29e5 | 1.97e5 | 1.60e5 | 9385 | inactive
rols | DRSC10536 | 63390 | 71395 | 1.13e5 | 93260 | 3345 | inactive
